Targets include cGAS K411A (human) (UniProt Q8N884); cGAS K384A (human) (UniProt Q8N884); cGAS K400E/K403E (human) (UniProt Q8N884); cGAS C404A (human) (UniProt Q8N884); cGAS K407A (human) (UniProt Q8N884); cGAS WT (human) (UniProt Q8N884); cGAS C405A (human) (UniProt Q8N884).
Common to all, as to experiment: pull-down (streptavidin beads, SDS-PAGE)
Holding throughout (conditions): Protein + biotin-ISD 1 h at room temperature, then streptavidin beads 1 h in 50 mM Tris-HCl pH 7.5, 100 mM NaCl, 10% glycerol, 0.5% NP-40; three washes in the same buffer; recombinant protein; residues 161-522

Sequences of proteins named here, by UniProt entry; tags and fusion partners are left off. Residues count along the entry.
UniProt Q8N884, 161-522 K411A: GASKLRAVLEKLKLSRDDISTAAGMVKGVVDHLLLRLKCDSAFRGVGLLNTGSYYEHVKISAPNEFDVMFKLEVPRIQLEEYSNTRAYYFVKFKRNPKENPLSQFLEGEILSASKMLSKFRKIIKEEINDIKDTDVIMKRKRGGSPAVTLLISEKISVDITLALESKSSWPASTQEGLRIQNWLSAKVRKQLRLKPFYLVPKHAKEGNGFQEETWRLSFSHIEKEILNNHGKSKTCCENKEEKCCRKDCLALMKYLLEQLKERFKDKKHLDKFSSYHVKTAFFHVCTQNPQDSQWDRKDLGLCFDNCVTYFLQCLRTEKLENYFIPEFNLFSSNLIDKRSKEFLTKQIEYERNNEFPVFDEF
UniProt Q8N884, 161-522 K384A: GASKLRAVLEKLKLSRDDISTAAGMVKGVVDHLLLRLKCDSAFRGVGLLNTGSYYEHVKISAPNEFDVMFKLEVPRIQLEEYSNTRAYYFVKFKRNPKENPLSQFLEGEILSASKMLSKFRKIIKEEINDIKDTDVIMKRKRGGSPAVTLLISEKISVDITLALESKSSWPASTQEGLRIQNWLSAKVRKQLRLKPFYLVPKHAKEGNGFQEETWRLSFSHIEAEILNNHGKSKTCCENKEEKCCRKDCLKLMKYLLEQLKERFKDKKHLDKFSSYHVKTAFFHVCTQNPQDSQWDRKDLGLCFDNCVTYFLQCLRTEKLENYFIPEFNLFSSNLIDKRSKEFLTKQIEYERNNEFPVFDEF
UniProt Q8N884, 161-522 K400E/K403E: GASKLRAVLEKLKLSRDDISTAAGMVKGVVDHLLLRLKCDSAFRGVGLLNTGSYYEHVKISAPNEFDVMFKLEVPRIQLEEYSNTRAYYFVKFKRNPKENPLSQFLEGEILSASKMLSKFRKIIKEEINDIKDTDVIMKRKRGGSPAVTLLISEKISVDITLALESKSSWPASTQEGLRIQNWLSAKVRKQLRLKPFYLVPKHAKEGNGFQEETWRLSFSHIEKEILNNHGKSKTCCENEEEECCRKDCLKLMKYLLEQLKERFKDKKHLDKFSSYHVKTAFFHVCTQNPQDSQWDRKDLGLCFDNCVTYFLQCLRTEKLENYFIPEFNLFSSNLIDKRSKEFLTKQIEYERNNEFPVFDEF
UniProt Q8N884, 161-522 C404A: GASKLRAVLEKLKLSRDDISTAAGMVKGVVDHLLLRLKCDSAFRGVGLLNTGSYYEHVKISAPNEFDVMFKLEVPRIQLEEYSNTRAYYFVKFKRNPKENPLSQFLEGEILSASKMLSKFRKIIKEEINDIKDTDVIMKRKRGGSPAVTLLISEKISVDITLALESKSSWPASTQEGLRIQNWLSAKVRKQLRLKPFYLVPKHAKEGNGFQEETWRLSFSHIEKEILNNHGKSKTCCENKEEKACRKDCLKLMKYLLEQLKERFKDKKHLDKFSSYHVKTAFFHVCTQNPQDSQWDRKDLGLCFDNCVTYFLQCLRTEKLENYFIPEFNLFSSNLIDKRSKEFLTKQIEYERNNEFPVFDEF
UniProt Q8N884, 161-522 K407A: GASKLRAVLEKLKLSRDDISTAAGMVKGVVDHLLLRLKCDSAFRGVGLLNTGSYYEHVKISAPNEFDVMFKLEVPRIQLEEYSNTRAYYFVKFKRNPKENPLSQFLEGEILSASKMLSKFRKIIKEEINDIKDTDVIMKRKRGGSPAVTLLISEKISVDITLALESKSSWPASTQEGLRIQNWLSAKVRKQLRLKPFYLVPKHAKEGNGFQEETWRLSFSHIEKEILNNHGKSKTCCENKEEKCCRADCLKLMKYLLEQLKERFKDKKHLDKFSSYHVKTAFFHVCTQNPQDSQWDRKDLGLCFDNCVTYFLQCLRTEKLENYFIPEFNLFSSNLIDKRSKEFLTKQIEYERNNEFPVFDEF
UniProt Q8N884, 161-522: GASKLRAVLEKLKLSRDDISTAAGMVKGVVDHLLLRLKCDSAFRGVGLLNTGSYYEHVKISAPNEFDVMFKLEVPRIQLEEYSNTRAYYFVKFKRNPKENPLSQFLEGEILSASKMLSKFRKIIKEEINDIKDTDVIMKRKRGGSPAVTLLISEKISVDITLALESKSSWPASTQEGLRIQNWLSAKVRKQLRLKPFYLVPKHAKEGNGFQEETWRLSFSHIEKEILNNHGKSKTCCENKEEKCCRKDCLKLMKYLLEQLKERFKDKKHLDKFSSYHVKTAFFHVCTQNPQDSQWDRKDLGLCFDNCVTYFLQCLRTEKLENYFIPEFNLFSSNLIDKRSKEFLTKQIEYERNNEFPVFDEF
UniProt Q8N884, 161-522 C405A: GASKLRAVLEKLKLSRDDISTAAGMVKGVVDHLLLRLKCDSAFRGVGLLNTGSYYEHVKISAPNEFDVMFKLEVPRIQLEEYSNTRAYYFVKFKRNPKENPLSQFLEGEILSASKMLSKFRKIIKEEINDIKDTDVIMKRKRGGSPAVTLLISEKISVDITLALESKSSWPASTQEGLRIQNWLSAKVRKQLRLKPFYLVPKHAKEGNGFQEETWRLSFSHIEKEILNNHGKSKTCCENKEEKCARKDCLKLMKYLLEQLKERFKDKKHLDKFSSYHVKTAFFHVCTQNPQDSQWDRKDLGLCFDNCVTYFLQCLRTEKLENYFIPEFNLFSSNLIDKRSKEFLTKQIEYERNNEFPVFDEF

Data set [1] deals with cGAS ΔZnF del390-405 (human) (UniProt Q8N884).

Construct, isoform or probe ends are uncertain for at least one entry. For some assays here: The comparison behind a weaker result is the experiment's own reference, which may not be listed here.

For the sequence “TACAGATCTACTAGTGATCTATGACTGATCTGTACATGATCTACA (double strand) [biotinylated ISD (interferon stimulatory DNA)]”, the binding result was “binds” in the data set with cGAS K411A (human); “binds” with cGAS K384A (human); “binds” in the data set with cGAS K400E/K403E (human); “binds more weakly” with cGAS C404A (human); “binds” with cGAS K407A (human); “binds” with cGAS WT (human). The binding result is “binds” in the data set with cGAS C405A (human) and “binds more weakly” in data set [1].

The values above are taken from paper PMC3792152.
